This note sets out measurements from paper doi:10.1101/2025.06.19.660543.

The chains behind the UniProt entries cited, without tags or fusion partners.
UniProt P30281: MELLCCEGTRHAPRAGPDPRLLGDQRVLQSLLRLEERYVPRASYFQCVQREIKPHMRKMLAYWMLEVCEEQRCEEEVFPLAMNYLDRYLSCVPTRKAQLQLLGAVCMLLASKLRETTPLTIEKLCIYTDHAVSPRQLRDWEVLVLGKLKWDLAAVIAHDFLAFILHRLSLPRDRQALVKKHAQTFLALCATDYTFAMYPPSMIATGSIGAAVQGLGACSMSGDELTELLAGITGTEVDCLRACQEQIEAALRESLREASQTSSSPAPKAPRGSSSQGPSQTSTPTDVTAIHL
UniProt P38936: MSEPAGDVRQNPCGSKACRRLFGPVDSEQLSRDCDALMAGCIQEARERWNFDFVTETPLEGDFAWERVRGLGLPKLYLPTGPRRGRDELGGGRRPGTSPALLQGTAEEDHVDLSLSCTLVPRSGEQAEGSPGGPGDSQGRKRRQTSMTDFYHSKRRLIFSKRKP

These are yes or no findings as the source states them, for the method shown. In cells and extracts the contact can be indirect. Some binding calls cover weakened binding; strength is not graded here.

Assay [1] deals with cyclin D3 (CCND3), endogenous (human (endogenous in HCT116)) (UniProt P30281). In words: co-IP.
Assay [2] has as its target CDKN1A (p21Cip/Waf1) (human (endogenous in HCT116)) (UniProt P38936). In words: co-IP.

“CDKN1A (p21Cip/Waf1) (from UniProt P38936 1-164)”: the binding entry in assay [1] is reported as “binds”.

Consider “endogenous CCND3 phosphorylated at Thr283 (from UniProt P30281 1-292)”, for which, in assay [2], the binding result was “binds”.

On to “cyclin D3 (CCND3), endogenous (from UniProt P30281 1-292)”, for which the binding entry in assay [2] is “binds”.
